Record: PubChem BioAssay AID1224828 (NIAID, 2016)
In all, the deposit lists about 17,000 reagents; below is a random part of them. 762 of all reagents (4.5%) were called active. 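Active calls include both raised and lowered p65 entry, mostly lowered; wells with fewer than 50 cells lack a z-score.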 The raw values are shown without normalisation.

Aim: 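Regulators linking TLR4 signalling to p65 nuclear translocation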 (primary screen)
System: mouse RAW264.7 G9 macrophage reporter cells (GFP-p65, Tnf promoter-mCherry)
Reagent: siRNA pool against mouse genes, 100 nM
Time to read-out: 2 days siRNA transfection, then 40 min LPS before fixation
Treatment: LPS (Salmonella minnesota R595) at 10 ng/ml
Read-out: 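Microscopy ratio of nuclear to perinuclear-ring GFP-p65 signal, scaled to the plate median; gene score is the average of two replicate robust z-scores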
Scale: p65 translocation robust z-score: higher = more nuclear NF-kappaB p65 after LPS than the plate median; nuclear/cytoplasmic p65 ratio: higher = more nuclear NF-kappaB p65
Hit rule: 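Active if robust z is above 3.3 (negative regulators) or below -1.56, the Tlr4 control median (positive regulators); activity score 50 or more; control wells not called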
Meaning of the calls: active = hit (p65 shift raised or lowered); inactive = no clear change

Zfp189
- p65 translocation robust z-score: -0.01
- nuclear/cytoplasmic p65 ratio, rep 1: 1.33
- nuclear/cytoplasmic p65 ratio, rep 2: 1.25
- low cell count flag: enough cells to score
- outcome: inactive

Cln8
- p65 translocation robust z-score: -0.3
- nuclear/cytoplasmic p65 ratio, rep 1: 1.44
- nuclear/cytoplasmic p65 ratio, rep 2: 1.33
- low cell count flag: enough cells to score
- outcome: inactive

Dffa
- p65 translocation robust z-score: 2.1
- nuclear/cytoplasmic p65 ratio, rep 1: 1.71
- nuclear/cytoplasmic p65 ratio, rep 2: 1.7
- low cell count flag: enough cells to score
- outcome: inactive

Ercc6l2
- p65 translocation robust z-score: 0.47
- nuclear/cytoplasmic p65 ratio, rep 1: 1.58
- nuclear/cytoplasmic p65 ratio, rep 2: 1.54
- low cell count flag: enough cells to score
- outcome: inactive

Rag2
- p65 translocation robust z-score: 1.09
- nuclear/cytoplasmic p65 ratio, rep 1: 1.69
- nuclear/cytoplasmic p65 ratio, rep 2: 1.65
- low cell count flag: enough cells to score
- outcome: inactive

Ppme1
- p65 translocation robust z-score: 2.67
- nuclear/cytoplasmic p65 ratio, rep 1: 1.8
- nuclear/cytoplasmic p65 ratio, rep 2: 2.22
- low cell count flag: enough cells to score
- outcome: inactive

Klrc2
- p65 translocation robust z-score: -1.88
- nuclear/cytoplasmic p65 ratio, rep 1: 1.27
- nuclear/cytoplasmic p65 ratio, rep 2: 1.18
- low cell count flag: enough cells to score
- outcome: active

Continued (2 carried over from the part before).
Ppme1
- p65 translocation robust z-score: 2.67
- nuclear/cytoplasmic p65 ratio, rep 1: 1.8
- nuclear/cytoplasmic p65 ratio, rep 2: 2.22
- low cell count flag: enough cells to score
- outcome: inactive

Klrc2
- p65 translocation robust z-score: -1.88
- nuclear/cytoplasmic p65 ratio, rep 1: 1.27
- nuclear/cytoplasmic p65 ratio, rep 2: 1.18
- low cell count flag: enough cells to score
- outcome: active

Inca1
- p65 translocation robust z-score: -0.66
- nuclear/cytoplasmic p65 ratio, rep 1: 1.55
- nuclear/cytoplasmic p65 ratio, rep 2: 1.54
- low cell count flag: enough cells to score
- outcome: inactive

Clec3b
- p65 translocation robust z-score: -0.6
- nuclear/cytoplasmic p65 ratio, rep 1: 1.53
- nuclear/cytoplasmic p65 ratio, rep 2: 1.34
- low cell count flag: enough cells to score
- outcome: inactive

Aifm3
- p65 translocation robust z-score: 0.66
- nuclear/cytoplasmic p65 ratio, rep 1: 1.51
- nuclear/cytoplasmic p65 ratio, rep 2: 1.52
- low cell count flag: enough cells to score
- outcome: inactive

E130308A19Rik
- nuclear/cytoplasmic p65 ratio, rep 1: 1.1
- nuclear/cytoplasmic p65 ratio, rep 2: 1.15
- low cell count flag: fewer than 50 cells per well; well left out of scoring
- outcome: inactive

Atg12
- p65 translocation robust z-score: -1.36
- nuclear/cytoplasmic p65 ratio, rep 1: 1.42
- nuclear/cytoplasmic p65 ratio, rep 2: 1.41
- low cell count flag: enough cells to score
- outcome: inactive
